Record: PubChem BioAssay AID1159584 (Peter MacCallum Cancer Centre, 2016)
This is a random part of about 18,000 reagents. Not all columns of the deposit are shown. The record does not give: the amount of reagent, the time to read-out.

Screen: 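Knock-downs that harm CDH1-null cells more than parental MCF10A cells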 (primary screen)
Cells: human MCF10A breast epithelial cells, parental and CDH1-null
Reagents: siRNA against human genes
Measurement: 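Cell viability by CellTiter-Glo ATP luminescence, each line scaled to the mean of mock wells across plates, then CDH1-null over parental ratio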
Reading the numbers: CDH1-null / parental viability ratio: higher = CDH1-null cells survive relatively better than parental

target gene	CDH1-null / parental viability ratio
GUCA1A	0.64
DZANK1	1.12
DSC2	1.03
AMN	1.15
SAR1B	1.08
AADAC	0.78
CERK	1.13
ARSD	0.94
ROM1	1.58
SCTR	1.61
KRTAP5-2	1.14
KIF21A	1.26
PTGDR	1.18
PMS2P5	0.85
IL1RAPL2	0.97
RGL3	0.96
MAGEB4	1.03
NUAK1	1.04
DMRTC1B	0.77
MEGF11	1
RPS13	1.81
IRAK4	0.96
KCTD21	0.96
ZDHHC4	0.75
SPMIP10	0.8
WNT2	1.1
MAPRE1	0.87
CSK	0.9
NME5	0.94
FBXL5	1
SLC36A3	0.89
MTG2	1.07
SLC27A2	0.96
SLX4	1.06
ST20-AS1	1.11
NDUFB5	0.98

Entries above whose gene name starts with M or m (4):
target gene	CDH1-null / parental viability ratio
MAGEB4	1.03
MEGF11	1
MAPRE1	0.87
MTG2	1.07

Additional results follow.
target gene	CDH1-null / parental viability ratio
TMEM201	1.05
AWAT2	0.69
TMEM213	0.71
SV2B	0.96
GPR135	0.98
TTC14	0.93
KASH5	0.96
KLHDC7A	0.95
PBX4	1
PEX39	1.38
PLD2	0.95
FIGNL2	1.09
MLLT10	0.98
CPB2	1.14
ALDH1A2	0.96
ATP1A4	1.06
ZKSCAN7	1.23
FRS3	1.21
TLR5	1.08
CABP4	1.11
KRTAP8-1	0.92
RBM12B	1
WNT7B	0.98
THEM4	1.1
NCKIPSD	1.24
CFAP95	0.92
PGLYRP4	0.94
REC8	0.84
HRH1	0.84
TCF21	0.94
PLEKHF1	1.11
LEKR1	1.07
